Reference: article PMC4627097
Results are given in words; binding and its absence hold for the method and conditions named.

Target: HsDus2^dusD (Dus domain of human dihydrouridine synthase 2: TIM barrel and alpha-helical sub-domain) (human) (UniProt Q9NX74)
Experiment: SEC + crystal structure; gel filtration on Superdex S200 in 25 mM Tris pH 8, 150 mM NaCl; crystal in space group I222 with one molecule in the asymmetric unit; both purified

- binding: no binding
B1: HsDus2^dusD (Dus domain of human dihydrouridine synthase 2: TIM barrel and alpha-helical sub-domain) (domain or fragment, UniProt Q9NX74 14-333)
chain: LILAPMVRVGTLPMRLLALDYGADIVYCEELIDLKMIQCKRVVNEVLSTVDFVAPDDRVVFRTCEREQNRVVFQMGTSDAERALAVARLVENDVAGIDVNMGCPKQYSTKGGMGAALLSDPDKIEKILSTLVKGTRRPVTCKIRILPSLEDTLSLVKRIERTGIAAIAVHGRKREERPQHPVSCEVIKAIADTLSIPVIANGGSHDHIQQYSDIEDFRQATAASSVMVARAAMWNPSIFLKEGLRPLEEVMQKYIRYAVQYDNHYTNTKYCLCQMLREQLESPQGRLLHAAQSSREICEAFGLGAFYEETTQELDAQQAR
